# Data as given in publication PMC13389695.
# The chains behind the UniProt entries cited, without tags or fusion partners.
# UniProt E2QYC9: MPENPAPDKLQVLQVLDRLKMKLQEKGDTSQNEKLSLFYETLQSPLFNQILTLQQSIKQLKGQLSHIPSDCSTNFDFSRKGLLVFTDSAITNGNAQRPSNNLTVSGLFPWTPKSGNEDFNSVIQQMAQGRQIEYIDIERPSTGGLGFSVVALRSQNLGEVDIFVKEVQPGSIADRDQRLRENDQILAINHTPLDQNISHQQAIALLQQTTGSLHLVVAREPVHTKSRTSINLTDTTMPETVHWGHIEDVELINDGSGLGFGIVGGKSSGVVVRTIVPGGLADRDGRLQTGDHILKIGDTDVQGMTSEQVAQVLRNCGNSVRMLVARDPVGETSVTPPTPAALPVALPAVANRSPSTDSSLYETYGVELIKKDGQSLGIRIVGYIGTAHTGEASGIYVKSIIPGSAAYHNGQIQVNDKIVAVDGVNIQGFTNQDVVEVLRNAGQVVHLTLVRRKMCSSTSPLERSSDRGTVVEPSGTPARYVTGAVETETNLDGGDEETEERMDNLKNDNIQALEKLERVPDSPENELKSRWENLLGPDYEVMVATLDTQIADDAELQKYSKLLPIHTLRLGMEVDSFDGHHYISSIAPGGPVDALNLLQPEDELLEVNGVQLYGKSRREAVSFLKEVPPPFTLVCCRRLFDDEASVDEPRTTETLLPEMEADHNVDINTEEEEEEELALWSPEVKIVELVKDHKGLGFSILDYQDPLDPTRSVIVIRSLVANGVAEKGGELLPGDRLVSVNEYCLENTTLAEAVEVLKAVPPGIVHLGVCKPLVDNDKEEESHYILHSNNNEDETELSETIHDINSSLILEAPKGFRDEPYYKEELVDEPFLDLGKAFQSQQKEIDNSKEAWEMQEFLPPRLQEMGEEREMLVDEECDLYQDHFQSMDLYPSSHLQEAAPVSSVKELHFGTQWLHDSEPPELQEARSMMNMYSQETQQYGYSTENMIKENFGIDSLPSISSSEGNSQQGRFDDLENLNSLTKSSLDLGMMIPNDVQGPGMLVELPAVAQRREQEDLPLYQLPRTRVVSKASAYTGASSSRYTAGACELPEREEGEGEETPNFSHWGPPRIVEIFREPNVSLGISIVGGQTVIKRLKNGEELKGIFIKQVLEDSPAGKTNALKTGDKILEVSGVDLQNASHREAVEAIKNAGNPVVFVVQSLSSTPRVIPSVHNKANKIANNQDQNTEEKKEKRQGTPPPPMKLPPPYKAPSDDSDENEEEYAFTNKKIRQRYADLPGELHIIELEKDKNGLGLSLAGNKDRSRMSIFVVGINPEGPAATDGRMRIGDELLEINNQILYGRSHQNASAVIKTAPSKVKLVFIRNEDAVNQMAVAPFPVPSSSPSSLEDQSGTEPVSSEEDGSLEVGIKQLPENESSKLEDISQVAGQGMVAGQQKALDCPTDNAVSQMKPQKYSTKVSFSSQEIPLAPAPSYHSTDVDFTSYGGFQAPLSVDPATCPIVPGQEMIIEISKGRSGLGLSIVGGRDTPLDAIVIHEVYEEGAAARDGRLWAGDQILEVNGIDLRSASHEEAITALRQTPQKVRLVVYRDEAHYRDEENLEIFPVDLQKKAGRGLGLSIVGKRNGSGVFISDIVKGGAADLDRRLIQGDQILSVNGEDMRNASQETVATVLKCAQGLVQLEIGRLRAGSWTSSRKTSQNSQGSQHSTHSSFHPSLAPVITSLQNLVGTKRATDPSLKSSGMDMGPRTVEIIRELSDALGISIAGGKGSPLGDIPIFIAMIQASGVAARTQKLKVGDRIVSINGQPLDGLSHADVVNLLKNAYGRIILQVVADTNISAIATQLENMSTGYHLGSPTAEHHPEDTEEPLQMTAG
# Target: T1, GFP tagged Homer3 (UniProt Q9NSC5)
# T1 sequence: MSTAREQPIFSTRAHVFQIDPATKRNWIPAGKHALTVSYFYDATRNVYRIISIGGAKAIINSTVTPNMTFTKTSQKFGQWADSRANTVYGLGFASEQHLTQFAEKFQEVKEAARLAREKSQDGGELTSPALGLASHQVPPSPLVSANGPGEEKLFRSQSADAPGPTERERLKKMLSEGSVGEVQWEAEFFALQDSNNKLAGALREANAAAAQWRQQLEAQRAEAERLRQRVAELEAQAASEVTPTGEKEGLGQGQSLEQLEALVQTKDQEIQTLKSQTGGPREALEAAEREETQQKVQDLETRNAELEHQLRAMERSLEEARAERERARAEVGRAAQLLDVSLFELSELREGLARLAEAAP
# Experiment: affinity purification with mass spectrometry; IP-MS of GFP tagged Homer3 stably expressed in MDCK cells
substance,measurement,value
"PATJ (endogenous, MDCK) (from UniProt E2QYC9 1-1828)",binding,binds

# Results are given in words; binding and its absence hold for the method and conditions named. In cells and extracts the contact can be indirect. Here binding means that the protein was enriched with, or labelled near, the bait; the list need not be complete. Tags and fused reporters may be left off the sequences shown.
